Screening data, single-dose tests

Sequences of proteins named here, by UniProt entry; tags and fusion partners are left off.
UniProt P9WFT3, whole entry: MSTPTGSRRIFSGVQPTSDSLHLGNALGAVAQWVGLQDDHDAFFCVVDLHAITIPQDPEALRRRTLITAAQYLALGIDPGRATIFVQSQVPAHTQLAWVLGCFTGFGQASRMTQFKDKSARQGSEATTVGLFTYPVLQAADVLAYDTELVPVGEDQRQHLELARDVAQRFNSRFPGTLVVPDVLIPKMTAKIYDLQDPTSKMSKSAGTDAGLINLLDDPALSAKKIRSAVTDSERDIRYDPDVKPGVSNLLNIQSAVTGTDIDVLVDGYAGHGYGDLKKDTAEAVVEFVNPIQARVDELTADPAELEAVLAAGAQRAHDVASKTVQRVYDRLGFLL

The filed quantity is “Percent Effect” (%).
The record does not define 0% and 100%; most values in the screen are far below 50% and negative numbers occur (in some assays of this library far below -100).
This is an unselected part of the compounds tested.
Two or more numbers in one place are separate tests of the same structure; such repeats can differ widely.

MtTrpRS: 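Enzyme assay of tryptophanyl-tRNA synthetase; the read-out is not stated. Target: Tryptophan-tRNA ligase, Mycobacterium tuberculosis (UniProt P9WFT3). Concentration: 10 µM. Direction is not recorded; retested compounds ran higher, which suggests that high means inhibition. Of about 65,000 compounds tested this way, about 64 (0.098%) reached 50% or more in at least one test.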
Leishmania in macrophages: 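Cell assay of Leishmania donovani living inside macrophages; the read-out is not stated. Concentration: 30 µM. Direction is inferred from retests: higher values go with stronger inhibition. Size under these conditions: about 69,000 compounds, about 1,000 of them at 50% or above in at least one test.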

{"compound": "OC(COCc1ccccc1F)CN1CCC(Cn2cccn2)CC1", "stereo": "stereo not given", "MtTrpRS": 2.376, "Leishmania in macrophages": 8.392}
{"compound": "Cn1cnc(S(=O)(=O)NCC2(O)CCc3ccccc3C2)c1", "stereo": "stereo not given", "MtTrpRS": -2.058, "Leishmania in macrophages": 5.972}
{"compound": "O=C(O)C(F)(F)F.O=C(O)C(F)(F)F.[H][C@@]12CN(Cc3cnn(C)c3)C[C@]1([H])OCCN2c1ncccn1", "Leishmania in macrophages": -14.22}
{"compound": "O=C(NCc1cccnc1)N1CCc2ncnc(C3CC3)c2CC1.O=C(O)C(F)(F)F", "Leishmania in macrophages": 16.9}
{"compound": "O=C(CCn1cccn1)N1CCC(c2nnc(-c3ccccn3)o2)CC1", "MtTrpRS": -3.034, "Leishmania in macrophages": -11.41}
{"compound": "CN1CC(=O)N(c2ccccc2)CC12CCN(S(C)(=O)=O)C2", "stereo": "stereo not given", "MtTrpRS": 6.173}
{"compound": "Cn1cc(N2CCN(c3ccc(C#N)c(Cl)c3)CC2=O)cn1", "MtTrpRS": -5.016, "Leishmania in macrophages": 7.85}
{"compound": "CN(C)C(=O)N1CCC2(CC1)COCCN(c1ncccn1)C2", "MtTrpRS": -7.895, "Leishmania in macrophages": -6.029}
{"compound": "Cc1ccccc1CN1CCN(Cc2nccn2C)CC1", "MtTrpRS": 3.991, "Leishmania in macrophages": 26.18}
{"compound": "COCCN(C(=O)c1ccsc1)c1ccc(C#N)cc1", "MtTrpRS": -1.456, "Leishmania in macrophages": 18.49}
{"compound": "COc1ccc(CNC(=O)Nc2ccc(=O)n(C)c2)cc1", "MtTrpRS": 5.676, "Leishmania in macrophages": 21.3}
{"compound": "Cn1c(=O)n(C)c2nc(Br)c(CC(=O)c3ccccc3)n2c1=O", "MtTrpRS": -2.654, "Leishmania in macrophages": 43.74}
{"compound": "CC(C)CCN1CCC2(CC1)NCc1ccccc1NC2=O", "MtTrpRS": -7.174, "Leishmania in macrophages": -0.6421}
{"compound": "Cc1cn2c(n1)CCC(NC(=O)c1ccc(OCC3CC3)nc1)C2", "stereo": "stereo not given", "MtTrpRS": 0.6353, "Leishmania in macrophages": 9.002}
{"compound": "Cc1ccc(N2CCO[C@H]3CN(CC4CC4)C[C@H]32)nn1", "MtTrpRS": -0.6103}
{"compound": "CCn1cnnc1CNS(=O)(=O)N1CCCC1c1ccco1", "stereo": "stereo not given", "MtTrpRS": -3.307, "Leishmania in macrophages": 27.82}
{"compound": "O=C(c1cnccn1)N1C[C@@H]2CC[C@H](C1)N(C(=O)Cc1ccsc1)C2", "MtTrpRS": -2.734}
{"compound": "O=C(Cn1cc(-c2ccccc2)ncc1=O)Nc1nccs1", "MtTrpRS": -4.944, "Leishmania in macrophages": -16.53}
{"compound": "CCN1CCOCC2(CCCN(C(=O)c3ccncc3F)C2)C1.O=C(O)C(F)(F)F", "stereo": "stereo not given", "Leishmania in macrophages": 17.32}
{"compound": "COc1ccc(CN2CCOCC3(CCN(C4CCOCC4)C3)C2)cc1", "stereo": "stereo not given", "MtTrpRS": 0.3487}
{"compound": "Cc1nn(C)cc1CN1CCN(CC2(c3ccccc3)CC2)CC1", "MtTrpRS": -4.881, "Leishmania in macrophages": 6.949}
{"compound": "c1coc(CN2CCc3onc(Cn4cccc4)c3C2)c1", "MtTrpRS": -2.379}
{"compound": "CC1CN(CC(=O)NCc2cccs2)CCN1c1nccs1", "stereo": "stereo not given", "MtTrpRS": -3.352, "Leishmania in macrophages": 43.32}
{"compound": "C[C@H]1C[C@H]2CN(C(=O)CCOc3ccccc3)CC[C@H]2O1", "MtTrpRS": -3.753}
{"compound": "COc1c(CNC2CCCOc3ccc(F)cc32)c(C)nn1C.Cl", "stereo": "stereo not given", "Leishmania in macrophages": 19.28}
{"compound": "CCCN(Cc1ccc(C(=O)NCC2COCCO2)c(=O)[nH]1)C1CC1", "stereo": "stereo not given", "MtTrpRS": 0.8258, "Leishmania in macrophages": -37.86}
{"compound": "CC(C)c1cc(C(=O)N2CCN(c3ccncc3)CC2)n(C)n1", "MtTrpRS": -3.827, "Leishmania in macrophages": 10.1}
{"compound": "COc1ccc(CN2CC[C@H](O)[C@@H]2Cc2cnn(C)c2)cc1", "MtTrpRS": -2.346}
{"compound": "CCCNS(=O)(=O)c1cnccc1N1CCN(C(C)C)CC1", "MtTrpRS": -0.5025, "Leishmania in macrophages": 25.89}
{"compound": "COc1c(C2CCCN2C(=O)c2c(C)noc2C)c(C)nn1C", "stereo": "stereo not given", "MtTrpRS": 0.9169, "Leishmania in macrophages": -8.778}
{"compound": "CS(=O)(=O)NC[C@]12COC[C@H]1CN(C(=O)c1ccncn1)C2", "MtTrpRS": 0.239}
{"compound": "O=C(O)C(F)(F)F.[H][C@@]12C[C@H](C(=O)NCc3cccnc3)[C@@]([H])(CN(C(=O)NC)C1)O2", "Leishmania in macrophages": 6.705}
{"compound": "CCn1cc2c(n1)C(COC)CN(C(=O)COc1ccccc1C)C2", "stereo": "stereo not given", "MtTrpRS": -3.931, "Leishmania in macrophages": -0.4533}
{"compound": "COCCCNC(=O)C1CN(C(=O)c2cnccn2)C1", "MtTrpRS": 2.204, "Leishmania in macrophages": "13.09 & 15.88"}
{"compound": "CCc1cnc(N)nc1NCCCN1CCCCC1CO", "stereo": "stereo not given", "MtTrpRS": 1.728, "Leishmania in macrophages": -24.99}

4 of the entries, repeated:

* CN(C)C(=O)N1CCC2(CC1)COCCN(c1ncccn1)C2 : MtTrpRS: -7.895%; Leishmania in macrophages: -6.029%
* C[C@H]1C[C@H]2CN(C(=O)CCOc3ccccc3)CC[C@H]2O1 : MtTrpRS: -3.753%
* CS(=O)(=O)NC[C@]12COC[C@H]1CN(C(=O)c1ccncn1)C2 : MtTrpRS: 0.239%
* CCN1CCOCC2(CCCN(C(=O)c3ccncc3F)C2)C1.O=C(O)C(F)(F)F (stereo not given) : Leishmania in macrophages: 17.32%

Data taken from ChEMBL document CHEMBL3988442, “University of Dundee, Small-Polar-MMV Screening Library” (2021).